Patent publication CN102875676A
No constants are given. Whether binding was seen depends on the method and setting. Some binding calls cover weakened binding; strength is not graded here.

Amino acid sequences for entries named in this document (tags omitted). A change or cut given only in a name is not applied to a line headed by its entry. Chains listed by the source or under a name are the forms on record and can include a tag or linker.
重组人VEGF (recombinant human VEGF, VEGF-A) (P15692, form named): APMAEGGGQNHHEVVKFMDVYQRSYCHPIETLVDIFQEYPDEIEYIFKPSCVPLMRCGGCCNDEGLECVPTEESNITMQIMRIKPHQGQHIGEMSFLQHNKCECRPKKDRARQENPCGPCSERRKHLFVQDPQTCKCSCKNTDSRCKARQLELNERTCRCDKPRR

Assays:
[1] = target: 重组人VEGF (recombinant human VEGF, VEGF-A) (human) (UniProt P15692); assay: ELISA of clone supernatants on coated recombinant human VEGF, anti-M13-HRP
[2] = target: 重组人VEGF (recombinant human VEGF, VEGF-A) (human) (UniProt P15692); assay: ELISA of clones of the secondary Fab library on human VEGF
[3] = target: 重组人VEGF (recombinant human VEGF, VEGF-A) (human) (UniProt P15692); assay: Friguet method (solution equilibrium with human VEGF, ELISA of free antibody on immobilised VEGF)
[4] = target: 重组人VEGF (recombinant human VEGF, VEGF-A) (human) (UniProt P15692); assay: dissociation of 125I-labelled antibody from HUVEC cells over 2 h at 37 C (legend: dissociation from VEGF)

B1: 3D7 Fab (原型分子3D7) (Fab, V domains shown)
VH: EVQLVESGGGLVQPGGSLRLSCAASGFNIKDTYIHWVRQAPGKGLEWVAYIAPSYGYTRYADSVKGRFTISADTSKNTAYLQMNSLRAEDTAVYYCSRSSDASYSYSAWGQGTLVTVSS
VL: DIVMTQSPSSLSASVGDRVTITCRASQFVGFYIHWYQQKPGKAPKLLIYAASERATGVPSRFSGSRSGTDFTLTISSLQPEDFATYYCQQWLNNPFTFGQGTKVEIKR
With B1 the binding [1] was “binds”.

B2: 6B2 Fab (候选分子6B2) (Fab, V domains shown)
VH: EVQLVQSGGGVVQPRRSLRLSCAASGFDIYDDDIHWVRQAPGKGLEWVYIAPSYGYTRYADSVKGRFTVSRDNSKNTLYLQMNSLRAEDTSVYYCARSSDASYSYSAMDYWGQGTLVTVSS
VL: DIQMTQSPSSVSASIGDRVTITCRASQDASYSSAWYQQRPGKAPELLIYSAASYESGVPSRFSGSGSGTDFTLTISSLQAEDFATYYCQSSASPATFGQGTRLEIKR
In the case of B2, the binding [2] is reported as “binds” and the binding [3] is reported as “binds”.

B3: 全长6B2 (F6B2), full-length antibody (antibody, V domains shown)
VH: B2 VH
VL: B2 VL
B3 was tested, and the binding [4] was “binds”.
